Experimental data reported in article doi:10.1101/2023.01.23.525191.
These are yes or no findings as the source states them, for the method shown. Binding seen in cells or lysates may run through a third protein. Some binding calls cover weakened binding; strength is not graded here.

Sequences of proteins named here, by UniProt entry; tags and fusion partners are left off.
UniProt P26599: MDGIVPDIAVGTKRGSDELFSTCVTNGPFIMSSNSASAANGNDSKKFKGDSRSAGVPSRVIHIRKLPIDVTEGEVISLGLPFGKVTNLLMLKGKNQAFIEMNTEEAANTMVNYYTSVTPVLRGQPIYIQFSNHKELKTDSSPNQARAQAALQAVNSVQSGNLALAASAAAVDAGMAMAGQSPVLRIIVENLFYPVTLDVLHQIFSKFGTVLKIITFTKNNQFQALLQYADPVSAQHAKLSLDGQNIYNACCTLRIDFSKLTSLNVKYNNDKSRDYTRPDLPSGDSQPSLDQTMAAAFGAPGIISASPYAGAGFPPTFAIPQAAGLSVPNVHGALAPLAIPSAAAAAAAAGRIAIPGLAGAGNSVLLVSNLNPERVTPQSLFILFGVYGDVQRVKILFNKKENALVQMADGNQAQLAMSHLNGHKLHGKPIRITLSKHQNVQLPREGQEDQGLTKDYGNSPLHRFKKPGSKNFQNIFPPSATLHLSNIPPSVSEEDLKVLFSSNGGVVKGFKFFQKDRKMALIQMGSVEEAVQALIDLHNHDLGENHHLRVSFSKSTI

Columns and labels:
[1] = biological target: StrepII-His6-RBPMS-A (rat); assay: pull-down
[2] = biological target: recombinant untagged full length rat RBPMS-A (rat); assay: co-sedimentation
[3] = biological target: StrepII-His6-RBPMS-A-K100E (rat); assay: pull-down

Row | Molecule | binding [1] | binding [2] | binding [3]
1 | PTBP1 (from UniProt P26599 1-557) | no binding (tested: 2 μM) |  | 
2 | MATR3 (protein, UniProt P43243 1-847) MSKSFQQSSLSRDSQGHGRDLSAAGIGLLAAATQSLSMPASLGRMNQGTARLASLMNLGMSSSLNQQGAHSALSSASTSSHNLQSIFNIGSRGPLPLSSQHRGDADQASNILASFGLSARDLDELSRYPEDKITPENLPQILLQLKRRRTEEGPTLSYGRDGRSATREPPYRVPRDDWEEKRHFRRDSFDDRGPSLNPVLDYDHGSRSQESGYYDRMDYEDDRLRDGERCRDDSFFGETSHNYHKFDSEYERMGRGPGPLQERSLFEKKRGAPPSSNIEDFHGLLPKGYPHLCSICDLPVHSNKEWSQHINGASHSRRCQLLLEIYPEWNPDNDTGHTMGDPFMLQQSTNPAPGILGPPPPSFHLGGPAVGPRGNLGAGNGNLQGPRHMQKGRVETSRVVHIMDFQRGKNLRYQLLQLVEPFGVISNHLILNKINEAFIEMATTEDAQAAVDYYTTTPALVFGKPVRVHLSQKYKRIKKPEGKPDQKFDQKQELGRVIHLSNLPHSGYSDSAVLKLAEPYGKIKNYILMRMKSQAFIEMETREDAMAMVDHCLKKALWFQGRCVKVDLSEKYKKLVLRIPNRGIDLLKKDKSRKRSYSPDGKESPSDKKSKTDGSQKTESSTEGKEQEEKSGEDGEKDTKDDQTEQEPNMLLESEDELLVDEEEAAALLESGSSVGDETDLANLGDVASDGKKEPSDKAVKKDGSASAAAKKKLKKVDKIEELDQENEAALENGIKNEENTEPGAESSENADDPNKDTSENADGQSDENKDDYTIPDEYRIGPYQPNVPVGIDYVIPKTGFYCKLCSLFYTNEEVAKNTHCSSLPHYQKLKKFLNKLAEERRQKKET | binds |  | 
3 | RBM14 (protein, UniProt Q96PK6 1-669) MKIFVGNVDGADTTPEELAALFAPYGTVMSCAVMKQFAFVHMRENAGALRAIEALHGHELRPGRALVVEMSRPRPLNTWKIFVGNVSAACTSQELRSLFERRGRVIECDVVKDYAFVHMEKEADAKAAIAQLNGKEVKGKRINVELSTKGQKKGPGLAVQSGDKTKKPGAGDTAFPGTGGFSATFDYQQAFGNSTGGFDGQARQPTPPFFGRDRSPLRRSPPRASYVAPLTAQPATYRAQPSVSLGAAYRAQPSASLGVGYRTQPMTAQAASYRAQPSVSLGAPYRGQLASPSSQSAAASSLGPYGGAQPSASALSSYGGQAAAASSLNSYGAQGSSLASYGNQPSSYGAQAASSYGVRAAASSYNTQGAASSLGSYGAQAASYGAQSAASSLAYGAQAASYNAQPSASYNAQSAPYAAQQAASYSSQPAAYVAQPATAAAYASQPAAYAAQATTPMAGSYGAQPVVQTQLNSYGAQASMGLSGSYGAQSAAAATGSYGAAAAYGAQPSATLAAPYRTQSSASLAASYAAQQHPQAAASYRGQPGNAYDGAGQPSAAYLSMSQGAVANANSTPPPYERTRLSPPRASYDDPYKKAVAMSKRYGSDRRLAELSDYRRLSESQLSFRRSPTKSSLDYRRLPDAHSDYARYSGSYNDYLRAAQMHSGYQRRM | binds |  | 
4 | RBFOX2 (protein, UniProt O43251 1-390) MQNEPLTPGYHGFPARDSQGNQEPTTTPDAMVQPFTTIPFPPPPQNGIPTEYGVPHTQDYAGQTGEHNLTLYGSTQAHGEQSSNSPSTQNGSLTTEGGAQTDGQQSQTQSSENSESKSTPKRLHVSNIPFRFRDPDLRQMFGQFGKILDVEIIFNERGSKGFGFVTFENSADADRAREKLHGTVVEGRKIEVNNATARVMTNKKMVTPYANGWKLSPVVGAVYGPELYAASSFQADVSLGNDAAVPLSGRGGINTYIPLISLPLVPGFPYPTAATTAAAFRGAHLRGRGRTVYGAVRAVPPTAIPAYPGVVYQDGFYGADLYGGYAAYRYAQPATATAATAAAAAAAAYSDGYGRVYTADPYHALAPAASYGVGAVASLYRGGYSRFAPY | binds | binds | binds
5 | ESRP2 (protein, UniProt Q9H6T0 1-727) MTPPPPPPPPPGPDPAADPAADPCPWPGSLVVLFGATAGALGRDLGSDETDLILLVWQVVEPRSRQVGTLHKSLVRAEAAALSTQCREASGLSADSLARAEPLDKVLQQFSQLVNGDVALLGGGPYMLCTDGQQLLRQVLHPEASRKNLVLPDMFFSFYDLRREFHMQHPSTCPARDLTVATMAQGLGLETDATEDDFGVWEVKTMVAVILHLLKEPSSQLFSKPEVIKQKYETGPCSDSTVPCPYSSKADVVDSETVVRARGLPWQSSDQDVARFFKGLNVARGGVALCLNAQGRRNGEALIRFVDSEQRDLALQRHKHHMGVRYIEVYKATGEEFVKIAGGTSLEVARFLSREDQVILRLRGLPFSAGPTDVLGFLGPECPVTGGTEGLLFVRHPDGRPTGDAFALFACEELAQAALRRHKGMLGKRYIELFRSTAAEVQQVLNRYASGPLLPTLTAPLLPIPFPLAPGTGRDCVRLRGLPYTATIEDILSFLGEAAADIRPHGVHMVLNQQGRPSGDAFIQMTSAERALAAAQRCHKKVMKERYVEVVPCSTEEMSRVLMGGTLGRSGMSPPPCKLPCLSPPTYTTFQATPTLIPTETAALYPSSALLPAARVPAAPTPVAYYPGPATQLYLNYTAYYPSPPVSPTTVGYLTTPTAALASAPTSVLSQSGALVRMQGVPYTAGMKDLLSVFQAYQLPADDYTSLMPVGDPPRTVLQAPKEWVCL | binds |  | 
